# According to PubChem BioAssay AID1347423 (Functional Genomics Laboratory (NCATS/FGL), 2020):
# In all, about 52,000 sequences went through this assay and about 210 (0.4%) were called active.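 The calls were made as follows: active = gene whose silencing raises cell survival under the drug, median off-target-corrected z-score across its silencing RNAs 2 or more; inactive = the rest.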 The list shows a part of the results.
# Experiment: Resistance to Poly (ADP-Ribose) Polymerase inhibitor: Gene Identification via Genome-wide siRNA Screen
# Conditions: mouse BRCA2 R2336H ES cells, olaparib, CellTiter-Glo viability; stronger effect = higher value
# Procedure, shortened: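 Mouse BRCA2 R2336H ES cells were reverse-transfected with siRNA (20 nM final), treated at 48 h with 500 nM olaparib, and read by CellTiter-Glo after 72 h. Scores: MAD-based z per siRNA, median per gene, seed off-target correction.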
row,Sequence,z-score
1,GGAAUGUGAAGAAGAAAUUTT against 4930588M11Rik,inactive: -1.84
2,GGUUGUACCUACAACAGAUTT against 1810011K17Rik,inactive: -0.0264
3,CGAUUUCAGCUUAAAGCACTT against Lmo3,inactive: 1.44
4,GGCAGAGAGCAACUAUAUUTT against C1galt1,inactive: 0.0809
5,GGAGGAUGAAGGCCAUUCATT against Hnrpd,inactive: -1.79
6,GGAGUAAAUUGAGAAACCATT against C730027J19Rik,inactive: -0.154
7,CCCUACACAGAUCACCUAATT against G0s2,inactive: -0.45
8,GGCAUACCGGAAACUUGCCTT against 1700014P03Rik,inactive: -0.0223
9,GGAUUGAGUGACGACUGACTT against Nova2,inactive: -1.63
10,GGCUGAAAUUGAACAGUACTT against Atp6v1g1,inactive: -1.72
11,GGAGGUCACACAUUCUGUGTT against Itgb7,inactive: 2.29
12,GCCUGAGGAUCUAUAGAUATT against Isp2,inactive: 1.01
13,CCACUCUGAGAUAUCUGAATT against Olfr1277,inactive: 0.401
14,GCGAAACAGACACUUCGGUTT against Dlg7,inactive: -0.497
15,GGUAUAAAGCAUGAGUAUCTT against Dstn,inactive: 0.389
16,GGUUACCACACUAUGUUACTT against 1810061M12Rik,inactive: 0.116
17,GGGAUGUAUUAGUGAAAGGTT against Dm15,inactive: -0.213
18,GAAAUGUCCAUCCAAAAGCTT against Sprr2k,inactive: 0.579
19,GCUGAGUGCCAAGAUUAUATT against Gnpda1,inactive: 0.731
20,GGAUUCUGGUGCUUUCCAGTT against Ptk7,inactive: 0.225
21,CCAUCUUCAGCAGUGGAAATT against Rph3al,inactive: -0.959
22,GGAUCGCUCAUGGAUAUUUTT against Fus,active: -0.22
23,GCAUCCUAGCAGAGAUUUATT against Pla2g1br,inactive: 1.71

row,Sequence,z-score
1,GGCUUGAUUUAUGAAUGUATT against Cacnb2,inactive: -2.09
2,GGACAAAAUCUUUGCUCUATT against Olfr1184,inactive: -0.14
3,GCUCAACCGUAACAUCCAGTT against Krt2-39,inactive: 0.188
4,GGUCGAAGAGGAAGUAAACTT against Tnfsf5,inactive: -0.5
5,GCUAACUGAGCUGCCGGAATT against Lrrn3,inactive: -0.552
6,GGACUUGAAAGAUAAAUAGTT against Crx,inactive: 0.683
7,GGACAAGAUUCUAAACUGCTT against Wdr37,inactive: -0.307
8,GCUUUUGGUACAGGAUGCCTT against 5830411N06Rik,inactive: 0.964
9,GGAUGGACUCCAGAAAAAUTT against Mmp1b,inactive: -2.48
10,GGUACUGCUAUGAGAAACUTT against Adam22,inactive: -2.54
11,GCAUGUUACUAGGAUAACUTT against MGC107671,inactive: -0.253
12,GGACAUUACCUCCUUUGACTT against Tbl3,inactive: -1.03
13,GCUAAGAUUGUCAUGAUGUTT against Bambi,inactive: 0.222
14,AAGACUGAGAGAGUCUUUUTT against Tcte3,inactive: 0.5
15,CCUGGUCAGUCUUACUUCUTT against Rbks,inactive: -0.288
16,GGAAGUGUAAUGGAAGCAATT against Kdt1,inactive: -1.13
17,GCCACCACAAUCAACAUGCTT against Ifitm1,inactive: -0.0049
18,UUAUUGAGGCCGGGCUCAUTT against AW146299,inactive: -0.67
19,GGAUCUCUUUCUUCACAGUTT against Pcdhgb7,inactive: 0.468
20,GGUCAAAGUACUGAAGCUUTT against Mapre1,inactive: -2.19
21,GGCAUCAACUUCAUGCUGATT against Olfr535,inactive: -0.17
22,GGGAUGCAGUGACCAUAGATT against Aldh3b1,inactive: -0.567
23,GGAGACAACCUGUACUCAGTT against Zfp352,inactive: -0.118

# In another format: results already given
row | Sequence | z-score
9 | GGAUGGACUCCAGAAAAAUTT against Mmp1b | inactive: -2.48
10 | GGUACUGCUAUGAGAAACUTT against Adam22 | inactive: -2.54

# Following part:

row,Sequence,z-score
1,GCAGGAAGGAGAUUUUAUATT against Tbpl1,inactive: -0.172
2,GGAGACAGCUCAAAAAGAATT against AI462438,inactive: -0.0595
3,GCCAACCAUUAAGCUACUATT against Gyg1,inactive: -2.5
4,CGCAAAUCUCAGGAAAGAATT against Anxa9,inactive: -0.746
5,GGUAAGAUUAAAAGACUCATT against Cpsf2,inactive: -0.342
6,CGGCUCGUAGUUUAUUAAATT against Ccnk,inactive: -1.74
7,GGAACACCACCUUAGAGAUTT against Hnrpa2b1,inactive: 0.646
8,GCCGUCCAACACUUGAUUGTT against Rttn,inactive: -0.989
9,GGUCCCAGGUACAACAAAATT against V1rg2,inactive: 1.92
10,GGCCUAAUUCCACCUUUGCTT against Etv4,inactive: -1.27
11,CGUAAACAUUUCCUUCUACTT against Dmbt1,inactive: 2.29
12,GGAGAUCAUUGAAUACUACTT against Sec14l1,inactive: -0.987
13,GCUUUAGAACAGAGGGUUATT against Scd4,inactive: -1.48
14,GGAAGUUGUGGAAGAAGACTT against Gcipip,inactive: -2.63
15,GGCAGAGAAGGAGAAACAGTT against Hmg20b,inactive: -1.14
16,CCUUUGACGGCCAUGAGUATT against Muc6,inactive: -1.73
17,GGUUUCUGUGCAUUAGGAATT against Slc35e3,inactive: 1.23
18,GGAGACUUAUAACAUGUUUTT against Habp2,inactive: -0.361
19,GGGUGGAGAAAUUUUAAUGTT against Sart2,inactive: 2.28
20,GGAAGUAAAAUUUGACAUGTT against Il1a,inactive: 0.418
21,GGCCCAGAUAAAUAACAUGTT against Kpna1,inactive: -0.378
